Results are given in words; binding and its absence hold for the method and conditions named. In cells and extracts the contact can be indirect. Some binding calls cover weakened binding; strength is not graded here. Sequences can lack the tags named with a protein.
Molecular target: T1, CD200 cytoplasmic domain fused with 3× FLAG tags at the C-terminal (human) (UniProt P41217)
T1 sequence: KRHRNQDRGELSQGVQKMT
Experiment: co-IP; lysate of UMSCC84 cells transfected with the FLAG-tagged CD200 construct, in IP buffer; precipitated with anti-FLAG M2 agarose beads; Western blot with anti-β-catenin or anti-FLAG

The chains behind the UniProt entries cited, without tags or fusion partners. Where a name states a change or a piece, a line headed by the entry shows the natural chain unless it says otherwise.
UniProt P41217: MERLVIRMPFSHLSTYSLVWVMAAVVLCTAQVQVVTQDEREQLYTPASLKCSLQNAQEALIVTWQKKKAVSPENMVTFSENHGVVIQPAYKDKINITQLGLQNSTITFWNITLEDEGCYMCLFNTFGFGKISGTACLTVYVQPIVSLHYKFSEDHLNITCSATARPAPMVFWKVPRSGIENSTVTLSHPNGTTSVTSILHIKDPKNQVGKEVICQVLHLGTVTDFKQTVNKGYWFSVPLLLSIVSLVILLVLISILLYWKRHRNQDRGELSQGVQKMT
UniProt P35222: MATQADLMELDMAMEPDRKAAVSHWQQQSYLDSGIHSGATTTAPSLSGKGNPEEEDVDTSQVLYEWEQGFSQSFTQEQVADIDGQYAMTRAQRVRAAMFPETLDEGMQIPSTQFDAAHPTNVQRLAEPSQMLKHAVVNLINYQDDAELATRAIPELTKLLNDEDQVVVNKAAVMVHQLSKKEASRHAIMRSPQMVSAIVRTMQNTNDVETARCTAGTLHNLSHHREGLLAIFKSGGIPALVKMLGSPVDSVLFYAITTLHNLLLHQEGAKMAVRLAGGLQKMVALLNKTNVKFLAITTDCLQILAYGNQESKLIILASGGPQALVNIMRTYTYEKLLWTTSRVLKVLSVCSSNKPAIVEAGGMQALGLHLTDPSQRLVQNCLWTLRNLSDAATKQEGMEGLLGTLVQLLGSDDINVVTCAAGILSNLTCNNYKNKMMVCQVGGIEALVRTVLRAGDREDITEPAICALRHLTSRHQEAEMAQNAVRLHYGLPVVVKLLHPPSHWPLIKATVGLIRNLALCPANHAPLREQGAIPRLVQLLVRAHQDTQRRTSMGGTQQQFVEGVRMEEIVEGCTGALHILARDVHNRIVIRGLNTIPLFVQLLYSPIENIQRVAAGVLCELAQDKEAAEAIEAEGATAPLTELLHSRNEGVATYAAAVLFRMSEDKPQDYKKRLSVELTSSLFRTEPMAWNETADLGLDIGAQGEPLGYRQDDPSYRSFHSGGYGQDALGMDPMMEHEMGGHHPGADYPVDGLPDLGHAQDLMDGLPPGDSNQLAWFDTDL

β-catenin (from UniProt P35222 1-781)
binding: binds
